In US20060084085A1, “Methods and compositions for modulating Bax-mediated apoptosis” (priority 2004, published 2006):
No constants are given. Whether binding was seen depends on the method and setting. In cells and extracts the contact can be indirect. Some results given as binding are weak or reduced against the parent protein; the word gives no strength.

By UniProt entry, the sequences of proteins in these tests, tags left out. Where a name states a change or a piece, a line headed by the entry shows the natural chain unless it says otherwise.
UniProt P12956: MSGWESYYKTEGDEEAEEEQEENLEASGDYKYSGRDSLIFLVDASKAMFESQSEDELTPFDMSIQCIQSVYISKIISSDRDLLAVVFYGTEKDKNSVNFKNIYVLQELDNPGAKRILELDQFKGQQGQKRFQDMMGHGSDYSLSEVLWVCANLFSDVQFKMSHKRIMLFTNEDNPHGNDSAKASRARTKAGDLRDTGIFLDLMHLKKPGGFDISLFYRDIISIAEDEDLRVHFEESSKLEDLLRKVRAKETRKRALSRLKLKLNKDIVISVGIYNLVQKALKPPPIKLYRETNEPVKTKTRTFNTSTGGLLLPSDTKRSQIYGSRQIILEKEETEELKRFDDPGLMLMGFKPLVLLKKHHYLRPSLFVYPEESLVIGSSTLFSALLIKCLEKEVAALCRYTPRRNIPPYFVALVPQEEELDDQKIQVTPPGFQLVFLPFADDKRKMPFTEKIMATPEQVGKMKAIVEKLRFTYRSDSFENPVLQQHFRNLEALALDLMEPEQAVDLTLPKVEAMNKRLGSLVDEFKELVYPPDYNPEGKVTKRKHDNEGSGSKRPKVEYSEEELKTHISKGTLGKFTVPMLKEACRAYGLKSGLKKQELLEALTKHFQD
UniProt Q07812: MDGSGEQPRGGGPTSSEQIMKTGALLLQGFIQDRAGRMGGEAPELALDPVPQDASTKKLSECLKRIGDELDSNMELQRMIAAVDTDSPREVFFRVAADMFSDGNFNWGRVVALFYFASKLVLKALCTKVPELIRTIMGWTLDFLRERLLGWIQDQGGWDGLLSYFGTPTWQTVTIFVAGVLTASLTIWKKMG
UniProt Q92793: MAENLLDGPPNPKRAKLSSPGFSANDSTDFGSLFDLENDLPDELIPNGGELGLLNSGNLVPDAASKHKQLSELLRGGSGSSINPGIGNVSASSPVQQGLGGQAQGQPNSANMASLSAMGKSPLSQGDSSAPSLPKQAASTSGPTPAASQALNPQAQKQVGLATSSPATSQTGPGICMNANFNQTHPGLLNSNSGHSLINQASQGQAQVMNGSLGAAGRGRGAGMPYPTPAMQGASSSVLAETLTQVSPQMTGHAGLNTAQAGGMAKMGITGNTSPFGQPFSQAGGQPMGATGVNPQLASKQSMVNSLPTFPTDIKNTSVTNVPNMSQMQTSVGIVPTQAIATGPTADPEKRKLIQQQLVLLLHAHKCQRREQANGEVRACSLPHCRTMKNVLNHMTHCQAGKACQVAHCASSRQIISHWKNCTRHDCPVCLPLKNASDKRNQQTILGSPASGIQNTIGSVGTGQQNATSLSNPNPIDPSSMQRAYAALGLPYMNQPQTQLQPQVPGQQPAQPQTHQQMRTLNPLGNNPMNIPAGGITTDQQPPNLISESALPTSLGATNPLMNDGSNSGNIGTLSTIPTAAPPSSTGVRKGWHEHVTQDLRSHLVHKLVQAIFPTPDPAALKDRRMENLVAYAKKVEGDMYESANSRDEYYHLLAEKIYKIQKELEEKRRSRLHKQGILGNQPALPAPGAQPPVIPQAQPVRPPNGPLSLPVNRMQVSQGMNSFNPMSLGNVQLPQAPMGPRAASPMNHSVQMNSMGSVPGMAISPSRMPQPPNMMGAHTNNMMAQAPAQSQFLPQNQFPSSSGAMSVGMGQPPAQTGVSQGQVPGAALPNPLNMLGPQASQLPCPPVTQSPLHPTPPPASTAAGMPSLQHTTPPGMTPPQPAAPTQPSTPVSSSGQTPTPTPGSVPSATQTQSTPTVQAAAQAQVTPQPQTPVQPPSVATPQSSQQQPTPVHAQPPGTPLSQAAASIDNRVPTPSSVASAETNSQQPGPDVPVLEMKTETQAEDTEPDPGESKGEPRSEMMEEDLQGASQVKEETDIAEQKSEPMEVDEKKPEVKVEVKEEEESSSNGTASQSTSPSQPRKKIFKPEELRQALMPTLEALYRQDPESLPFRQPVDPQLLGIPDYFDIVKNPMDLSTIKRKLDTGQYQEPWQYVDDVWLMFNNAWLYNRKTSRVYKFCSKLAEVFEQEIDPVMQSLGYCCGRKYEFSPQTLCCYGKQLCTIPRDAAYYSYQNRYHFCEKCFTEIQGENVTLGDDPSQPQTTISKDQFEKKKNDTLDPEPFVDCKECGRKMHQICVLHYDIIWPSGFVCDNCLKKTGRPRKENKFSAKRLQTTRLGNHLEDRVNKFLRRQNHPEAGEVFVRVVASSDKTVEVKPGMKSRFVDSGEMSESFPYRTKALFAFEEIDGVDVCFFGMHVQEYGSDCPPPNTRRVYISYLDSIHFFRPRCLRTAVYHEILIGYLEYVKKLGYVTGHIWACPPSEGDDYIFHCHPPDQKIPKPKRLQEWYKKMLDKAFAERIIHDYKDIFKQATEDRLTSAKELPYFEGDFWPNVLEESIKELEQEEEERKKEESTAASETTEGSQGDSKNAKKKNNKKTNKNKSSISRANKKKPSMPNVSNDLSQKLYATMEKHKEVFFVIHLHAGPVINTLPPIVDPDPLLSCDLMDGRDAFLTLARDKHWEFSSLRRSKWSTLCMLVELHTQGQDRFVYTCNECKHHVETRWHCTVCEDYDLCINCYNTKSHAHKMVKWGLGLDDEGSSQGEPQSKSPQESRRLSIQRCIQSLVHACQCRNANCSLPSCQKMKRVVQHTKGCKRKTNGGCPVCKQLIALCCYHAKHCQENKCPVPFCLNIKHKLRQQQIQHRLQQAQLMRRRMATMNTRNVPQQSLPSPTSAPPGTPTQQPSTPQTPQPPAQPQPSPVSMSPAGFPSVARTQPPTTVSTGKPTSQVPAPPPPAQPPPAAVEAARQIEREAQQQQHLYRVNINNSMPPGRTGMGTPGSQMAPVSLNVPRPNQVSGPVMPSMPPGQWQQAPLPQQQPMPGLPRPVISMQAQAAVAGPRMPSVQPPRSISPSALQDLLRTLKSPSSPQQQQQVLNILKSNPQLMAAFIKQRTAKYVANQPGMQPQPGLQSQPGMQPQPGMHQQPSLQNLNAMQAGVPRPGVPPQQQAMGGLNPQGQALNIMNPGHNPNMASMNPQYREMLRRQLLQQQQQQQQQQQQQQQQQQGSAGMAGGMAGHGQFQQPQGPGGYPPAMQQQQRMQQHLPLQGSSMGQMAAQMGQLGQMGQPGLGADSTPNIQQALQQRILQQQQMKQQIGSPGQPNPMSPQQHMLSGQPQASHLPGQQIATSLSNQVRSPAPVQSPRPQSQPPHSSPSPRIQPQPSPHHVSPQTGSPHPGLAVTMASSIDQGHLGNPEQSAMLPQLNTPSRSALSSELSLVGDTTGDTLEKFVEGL
UniProt Q92831: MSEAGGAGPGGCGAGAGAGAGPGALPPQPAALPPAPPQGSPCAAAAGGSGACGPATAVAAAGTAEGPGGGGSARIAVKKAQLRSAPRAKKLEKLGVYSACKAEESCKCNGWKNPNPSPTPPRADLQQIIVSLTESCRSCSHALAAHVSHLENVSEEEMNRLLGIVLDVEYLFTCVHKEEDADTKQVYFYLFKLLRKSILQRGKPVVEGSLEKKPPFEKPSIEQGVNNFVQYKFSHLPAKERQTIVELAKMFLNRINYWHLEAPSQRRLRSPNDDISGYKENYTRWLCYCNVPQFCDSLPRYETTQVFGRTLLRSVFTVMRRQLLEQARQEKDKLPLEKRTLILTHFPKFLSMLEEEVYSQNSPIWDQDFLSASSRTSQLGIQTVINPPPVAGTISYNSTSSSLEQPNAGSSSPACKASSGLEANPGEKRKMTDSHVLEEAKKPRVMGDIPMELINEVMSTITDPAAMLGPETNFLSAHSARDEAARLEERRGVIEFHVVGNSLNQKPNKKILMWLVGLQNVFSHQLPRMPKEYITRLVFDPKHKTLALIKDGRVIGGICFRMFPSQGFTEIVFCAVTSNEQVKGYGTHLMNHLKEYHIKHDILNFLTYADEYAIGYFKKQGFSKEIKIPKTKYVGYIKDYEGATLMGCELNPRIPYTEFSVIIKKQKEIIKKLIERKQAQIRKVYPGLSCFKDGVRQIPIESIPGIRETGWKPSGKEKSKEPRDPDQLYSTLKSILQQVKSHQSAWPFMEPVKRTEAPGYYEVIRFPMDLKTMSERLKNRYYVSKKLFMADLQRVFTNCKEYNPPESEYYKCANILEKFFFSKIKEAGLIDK

What was measured:
[1] = target: human Ku70 (wild-type, full-length) (human) (UniProt P12956); assay: co-immunoprecipitation from HeLa or 293 cells; not disrupted by ethidium bromide (50 µg/ml)
[2] = target: human Ku70 (wild-type, full-length) (human) (UniProt P12956); assay: co-immunoprecipitation, summary of results
[3] = target: human Ku70 (wild-type, full-length) (human) (UniProt P12956); assay: co-immunoprecipitation, retold
[4] = target: Bax (Bcl-2 Associated X protein) (human) (UniProt Q07812); assay: co-immunoprecipitation of endogenous Ku70 and Bax from 293T cells in Chaps buffer (DMSO control)
[5] = target: Bax (Bcl-2 Associated X protein) (human) (UniProt Q07812); assay: co-immunoprecipitation and reverse IP from 293T cells
[6] = target: human Ku70 (wild-type, full-length) (human) (UniProt P12956); assay: co-immunoprecipitation from HeLa or 293 cells

Substance | binding [1] | binding [2] | binding [3] | binding [4] | binding [5] | binding [6]
human CREB-binding protein (CBP) (from UniProt Q92793 1-2442) (enzyme) | binds | binds | binds | – | – | –
human Ku70 (wild-type, full-length) (from UniProt P12956 1-609) | – | – | – | binds | binds | –
human p300/CBP-associated factor (PCAF) (from UniProt Q92831 1-832) (enzyme) | – | binds | – | – | – | binds
